Data published in the supplement of paper PMC10849652.
The list shows a part of the results.

Chains of the proteins cited; added tags and fusions are not shown. Lines headed by an entry give the natural chain unless they say otherwise; changes in a name come on top.
UniProt O15164: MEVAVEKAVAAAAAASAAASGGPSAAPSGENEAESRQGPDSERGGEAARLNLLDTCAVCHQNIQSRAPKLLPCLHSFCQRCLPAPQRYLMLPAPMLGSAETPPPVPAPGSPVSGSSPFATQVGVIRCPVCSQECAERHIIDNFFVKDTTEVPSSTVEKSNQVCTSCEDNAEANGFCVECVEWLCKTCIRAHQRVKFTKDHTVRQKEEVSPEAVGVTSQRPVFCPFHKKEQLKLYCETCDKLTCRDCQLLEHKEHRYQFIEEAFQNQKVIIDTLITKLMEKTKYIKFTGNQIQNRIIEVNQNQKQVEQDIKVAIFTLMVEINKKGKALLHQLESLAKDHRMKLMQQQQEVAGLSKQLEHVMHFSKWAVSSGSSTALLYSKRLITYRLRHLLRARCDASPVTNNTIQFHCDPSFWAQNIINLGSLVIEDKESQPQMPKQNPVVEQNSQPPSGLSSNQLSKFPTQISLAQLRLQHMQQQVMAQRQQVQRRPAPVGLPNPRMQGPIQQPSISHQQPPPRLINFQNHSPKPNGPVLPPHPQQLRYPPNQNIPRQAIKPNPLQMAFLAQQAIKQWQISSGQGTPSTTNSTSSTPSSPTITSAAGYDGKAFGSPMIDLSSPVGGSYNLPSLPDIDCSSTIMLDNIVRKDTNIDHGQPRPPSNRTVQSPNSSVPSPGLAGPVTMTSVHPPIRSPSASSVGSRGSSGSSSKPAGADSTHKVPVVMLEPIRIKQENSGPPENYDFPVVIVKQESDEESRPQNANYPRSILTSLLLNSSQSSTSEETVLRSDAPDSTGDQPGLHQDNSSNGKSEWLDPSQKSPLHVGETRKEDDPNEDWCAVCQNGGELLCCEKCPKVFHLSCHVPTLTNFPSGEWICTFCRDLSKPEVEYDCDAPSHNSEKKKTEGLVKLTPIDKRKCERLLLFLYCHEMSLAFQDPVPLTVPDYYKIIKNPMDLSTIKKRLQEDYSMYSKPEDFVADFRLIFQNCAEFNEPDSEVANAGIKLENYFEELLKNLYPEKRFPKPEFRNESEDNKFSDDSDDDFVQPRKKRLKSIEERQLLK
UniProt P29144: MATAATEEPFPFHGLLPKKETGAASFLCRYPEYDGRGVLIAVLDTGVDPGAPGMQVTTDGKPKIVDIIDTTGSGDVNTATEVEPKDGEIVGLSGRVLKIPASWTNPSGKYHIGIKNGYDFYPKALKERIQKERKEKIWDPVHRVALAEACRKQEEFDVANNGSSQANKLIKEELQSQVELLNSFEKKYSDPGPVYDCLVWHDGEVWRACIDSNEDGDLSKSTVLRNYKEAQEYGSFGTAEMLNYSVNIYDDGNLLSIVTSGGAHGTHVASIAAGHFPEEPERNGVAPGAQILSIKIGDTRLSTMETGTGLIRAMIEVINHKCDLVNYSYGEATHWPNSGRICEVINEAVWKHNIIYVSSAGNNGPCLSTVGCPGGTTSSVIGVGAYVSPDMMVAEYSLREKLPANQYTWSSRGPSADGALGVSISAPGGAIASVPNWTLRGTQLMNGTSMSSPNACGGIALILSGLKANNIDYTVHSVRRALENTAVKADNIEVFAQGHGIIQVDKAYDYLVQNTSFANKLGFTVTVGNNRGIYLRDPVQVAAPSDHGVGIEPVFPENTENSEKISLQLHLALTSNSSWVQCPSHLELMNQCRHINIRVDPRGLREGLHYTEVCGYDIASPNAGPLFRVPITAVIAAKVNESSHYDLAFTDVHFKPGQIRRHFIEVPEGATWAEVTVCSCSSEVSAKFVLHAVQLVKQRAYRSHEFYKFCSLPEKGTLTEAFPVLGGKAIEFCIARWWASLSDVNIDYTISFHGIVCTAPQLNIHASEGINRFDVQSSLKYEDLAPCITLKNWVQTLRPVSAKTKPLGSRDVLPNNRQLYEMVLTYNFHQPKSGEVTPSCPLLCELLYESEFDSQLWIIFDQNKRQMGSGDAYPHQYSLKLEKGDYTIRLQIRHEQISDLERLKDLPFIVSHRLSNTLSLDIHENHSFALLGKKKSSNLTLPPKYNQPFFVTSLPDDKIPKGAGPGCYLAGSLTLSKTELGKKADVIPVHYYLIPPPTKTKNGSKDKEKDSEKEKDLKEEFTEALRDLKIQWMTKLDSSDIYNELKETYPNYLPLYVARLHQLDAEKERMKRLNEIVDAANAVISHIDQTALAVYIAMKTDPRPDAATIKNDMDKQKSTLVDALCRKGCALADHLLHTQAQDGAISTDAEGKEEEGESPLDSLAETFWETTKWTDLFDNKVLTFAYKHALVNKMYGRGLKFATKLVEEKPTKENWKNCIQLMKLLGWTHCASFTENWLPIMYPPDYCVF
UniProt O43715: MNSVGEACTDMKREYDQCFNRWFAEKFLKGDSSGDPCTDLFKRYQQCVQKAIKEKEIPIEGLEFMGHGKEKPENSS
UniProt Q15645: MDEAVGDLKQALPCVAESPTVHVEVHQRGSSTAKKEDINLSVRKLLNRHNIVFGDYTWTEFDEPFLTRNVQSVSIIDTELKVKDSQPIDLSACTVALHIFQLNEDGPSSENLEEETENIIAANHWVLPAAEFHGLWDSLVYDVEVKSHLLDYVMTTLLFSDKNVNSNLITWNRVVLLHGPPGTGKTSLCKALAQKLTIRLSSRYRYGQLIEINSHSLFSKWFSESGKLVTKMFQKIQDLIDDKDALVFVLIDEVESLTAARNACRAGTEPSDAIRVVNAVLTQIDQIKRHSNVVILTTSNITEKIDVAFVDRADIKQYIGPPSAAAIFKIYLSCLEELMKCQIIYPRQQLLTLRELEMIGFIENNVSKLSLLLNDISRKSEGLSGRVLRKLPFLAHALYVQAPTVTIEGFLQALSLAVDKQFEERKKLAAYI
UniProt O75157: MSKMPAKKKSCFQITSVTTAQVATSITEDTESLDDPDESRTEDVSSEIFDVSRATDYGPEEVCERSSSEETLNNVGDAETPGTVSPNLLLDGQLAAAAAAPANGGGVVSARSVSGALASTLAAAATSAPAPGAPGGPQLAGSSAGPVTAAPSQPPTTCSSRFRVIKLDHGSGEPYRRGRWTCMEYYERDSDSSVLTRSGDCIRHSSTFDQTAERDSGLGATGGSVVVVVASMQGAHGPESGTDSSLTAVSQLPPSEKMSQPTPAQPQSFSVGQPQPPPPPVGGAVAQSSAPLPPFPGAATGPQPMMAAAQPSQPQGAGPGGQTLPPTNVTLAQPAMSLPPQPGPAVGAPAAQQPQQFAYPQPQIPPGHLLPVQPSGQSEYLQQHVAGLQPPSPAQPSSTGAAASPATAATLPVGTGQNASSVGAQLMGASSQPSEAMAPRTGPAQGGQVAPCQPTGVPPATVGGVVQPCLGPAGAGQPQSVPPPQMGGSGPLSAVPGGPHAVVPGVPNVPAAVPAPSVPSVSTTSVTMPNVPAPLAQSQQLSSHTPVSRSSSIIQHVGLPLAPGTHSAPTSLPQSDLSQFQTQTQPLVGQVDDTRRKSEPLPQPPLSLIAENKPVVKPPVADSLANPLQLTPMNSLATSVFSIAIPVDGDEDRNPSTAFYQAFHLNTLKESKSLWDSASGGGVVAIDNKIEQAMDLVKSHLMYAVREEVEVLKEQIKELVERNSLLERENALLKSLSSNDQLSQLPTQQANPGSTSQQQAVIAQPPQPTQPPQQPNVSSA
UniProt P48553, whole entry, looked up: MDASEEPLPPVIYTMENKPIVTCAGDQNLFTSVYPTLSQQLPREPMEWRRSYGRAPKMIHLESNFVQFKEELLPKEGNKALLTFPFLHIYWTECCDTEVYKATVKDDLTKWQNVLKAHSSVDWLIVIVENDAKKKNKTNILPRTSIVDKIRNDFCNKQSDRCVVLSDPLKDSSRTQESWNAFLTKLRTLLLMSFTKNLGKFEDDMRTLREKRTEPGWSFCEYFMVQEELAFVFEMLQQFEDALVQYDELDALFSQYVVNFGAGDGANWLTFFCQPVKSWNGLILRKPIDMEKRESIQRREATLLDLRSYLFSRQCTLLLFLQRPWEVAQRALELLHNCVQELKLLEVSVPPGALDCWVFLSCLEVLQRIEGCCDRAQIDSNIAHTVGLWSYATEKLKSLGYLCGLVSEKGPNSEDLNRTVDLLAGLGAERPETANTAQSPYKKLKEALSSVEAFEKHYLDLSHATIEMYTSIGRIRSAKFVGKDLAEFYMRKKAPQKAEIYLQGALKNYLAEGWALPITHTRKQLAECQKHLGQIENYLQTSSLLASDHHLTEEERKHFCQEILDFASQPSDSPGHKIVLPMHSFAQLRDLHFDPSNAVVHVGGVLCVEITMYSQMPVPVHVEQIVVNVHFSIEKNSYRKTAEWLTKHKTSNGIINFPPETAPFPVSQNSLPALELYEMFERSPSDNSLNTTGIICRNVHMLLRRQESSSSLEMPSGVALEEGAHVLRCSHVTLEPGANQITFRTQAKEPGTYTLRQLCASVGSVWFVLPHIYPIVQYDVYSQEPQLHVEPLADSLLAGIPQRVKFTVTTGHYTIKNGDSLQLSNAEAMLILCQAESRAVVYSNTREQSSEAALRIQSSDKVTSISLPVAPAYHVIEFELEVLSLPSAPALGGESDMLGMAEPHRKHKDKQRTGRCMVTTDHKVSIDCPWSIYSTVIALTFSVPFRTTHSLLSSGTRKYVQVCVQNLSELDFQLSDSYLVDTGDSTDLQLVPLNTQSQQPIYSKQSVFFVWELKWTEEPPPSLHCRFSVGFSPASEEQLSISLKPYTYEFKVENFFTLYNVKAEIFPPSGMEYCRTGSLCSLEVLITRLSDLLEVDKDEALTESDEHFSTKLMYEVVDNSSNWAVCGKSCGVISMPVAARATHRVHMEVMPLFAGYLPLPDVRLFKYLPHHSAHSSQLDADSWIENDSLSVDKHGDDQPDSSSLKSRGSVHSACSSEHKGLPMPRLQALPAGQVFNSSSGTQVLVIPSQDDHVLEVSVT
UniProt O94826, whole entry, looked up: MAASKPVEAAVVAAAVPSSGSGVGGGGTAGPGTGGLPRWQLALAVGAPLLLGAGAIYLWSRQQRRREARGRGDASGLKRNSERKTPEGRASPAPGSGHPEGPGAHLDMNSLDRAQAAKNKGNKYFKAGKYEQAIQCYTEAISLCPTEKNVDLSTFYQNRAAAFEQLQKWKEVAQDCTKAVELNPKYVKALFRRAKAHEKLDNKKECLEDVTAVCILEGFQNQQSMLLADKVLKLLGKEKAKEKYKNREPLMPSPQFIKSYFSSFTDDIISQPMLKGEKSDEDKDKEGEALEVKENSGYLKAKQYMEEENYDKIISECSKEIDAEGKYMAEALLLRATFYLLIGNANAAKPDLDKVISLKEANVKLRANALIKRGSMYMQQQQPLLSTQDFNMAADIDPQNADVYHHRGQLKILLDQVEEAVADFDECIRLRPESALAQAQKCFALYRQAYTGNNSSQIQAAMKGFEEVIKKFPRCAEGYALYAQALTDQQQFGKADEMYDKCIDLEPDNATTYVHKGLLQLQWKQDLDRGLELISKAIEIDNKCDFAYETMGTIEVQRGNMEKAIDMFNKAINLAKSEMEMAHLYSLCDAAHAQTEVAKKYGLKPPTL
UniProt Q9NXH8: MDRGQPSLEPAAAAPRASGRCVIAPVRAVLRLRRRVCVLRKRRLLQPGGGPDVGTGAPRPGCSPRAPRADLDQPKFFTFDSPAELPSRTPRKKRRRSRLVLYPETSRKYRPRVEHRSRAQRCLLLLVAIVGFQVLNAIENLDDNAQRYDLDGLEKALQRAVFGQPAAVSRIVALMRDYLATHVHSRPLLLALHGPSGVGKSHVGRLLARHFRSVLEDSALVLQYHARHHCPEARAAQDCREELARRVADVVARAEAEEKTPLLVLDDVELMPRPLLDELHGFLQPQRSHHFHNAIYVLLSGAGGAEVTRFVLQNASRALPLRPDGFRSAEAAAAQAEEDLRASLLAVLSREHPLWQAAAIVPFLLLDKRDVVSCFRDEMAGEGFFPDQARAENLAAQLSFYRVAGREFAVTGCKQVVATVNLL
UniProt Q9Y4K3: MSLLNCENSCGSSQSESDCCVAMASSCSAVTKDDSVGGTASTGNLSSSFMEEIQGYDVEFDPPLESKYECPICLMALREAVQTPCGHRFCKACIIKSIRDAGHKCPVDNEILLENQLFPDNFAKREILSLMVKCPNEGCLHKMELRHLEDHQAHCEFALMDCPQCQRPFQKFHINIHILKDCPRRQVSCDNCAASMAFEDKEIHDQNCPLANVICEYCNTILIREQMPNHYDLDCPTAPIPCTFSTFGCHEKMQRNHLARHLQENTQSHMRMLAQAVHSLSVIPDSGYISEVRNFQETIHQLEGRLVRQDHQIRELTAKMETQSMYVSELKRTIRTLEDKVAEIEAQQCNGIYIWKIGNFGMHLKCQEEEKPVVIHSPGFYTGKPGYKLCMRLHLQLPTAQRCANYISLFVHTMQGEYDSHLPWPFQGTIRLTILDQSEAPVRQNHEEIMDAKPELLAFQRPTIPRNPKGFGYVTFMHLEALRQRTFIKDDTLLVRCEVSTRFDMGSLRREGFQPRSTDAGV

compound: C1=CC2=NC=CN=C2C=C1/C=C/3\C(=O)NC(=O)S3; assay: log2 fold change, soluble protein after heating vs DMSO (PISA); higher = thermal stabilisation; K562 cells, 10 uM, 30 min; active = over 0.2 and 3.5 SD of the protein, either way, in both replicates (recomputed)
Method in brief: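 K562 cells at 2×10^6 cells/mL were given 10 μM compound for 30 min. Aliquots then went through 3 min of heating across 48°C-58°C, were pooled, and were extracted in PBS with 0.5% NP-40 at 4°C, and the supernatant after 21,000xg for 90 min was quantified by TMTpro 16plex LC-MS/MS with channel sums equalised. Thermal stability relative to control samples, from duplicates, is given as log2 fold change.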

log2 fold change, inactive:
TRIM25 (UniProt Q14258) -0.001
TOMM34 (UniProt Q15785) 0
TRIP11 (UniProt Q15643) -0.071
TRIM24 (UniProt O15164) 0.022
TPP2 (UniProt P29144) -0.08
TSEN34 (UniProt Q9BSV6) -0.032
TRIAP1 (UniProt O43715) 0.045
TP53RK (UniProt Q96S44) 0.03
TRIP13 (UniProt Q15645) 0.023
TRIO (UniProt O75962) 0.073
TSC22D2 (UniProt O75157) 0.041
TRAPPC10 (UniProt P48553) 0.05
TRMT112 (UniProt Q9UI30) 0.026
TOMM70 (UniProt O94826) 0.002
TOMM40 (UniProt O96008) 0.045
TOP2B (UniProt Q02880) 0.095
TNIK isoform 6 (UniProt Q9UKE5) 0.002
TOR4A (UniProt Q9NXH8) -0.038
TOP1 (UniProt P11387) -0.02
TPM4, A0A2R8Y5V9 0.006
TRAF6 (UniProt Q9Y4K3) -0.031
TRRAP (UniProt Q9Y4A5) 0.027
TOP3B (UniProt O95985) -0.001
TNFRSF1B (UniProt P20333) 0.011

No new results follow: entries from further up.
log2 fold change, inactive:
TOP1 (UniProt P11387) -0.02
TPM4, A0A2R8Y5V9 0.006
